Assay: Aerosolization with single-dose Acu-Breathe device into Andersen cascade impactor (fine particle fraction)
Conditions: neat powder, 30 to 75 L/min

CC12CCC3C(CC=C4CC(OS(=O)(=O)[O-])CCC43C)C1CCC2=O.[Na+] (stereo not shown) [DHEA-S Dihydrate]
fine particle fraction versus virtually anhydrous material: higher fine particle fraction than the virtually anhydrous material

— patent US20050113317A1, “Combination of dehydroepiandrosterone or dehydroepiandrosterone-sulfate with a cromone for treatment of asthma or chronic obstructive pulmonary disease” (priority 2003, published 2005)
